Experimental data from the supplement of paper PMC6078165.
Values are relative to the signal before dosing, not to a vehicle control; the signal also falls without drug.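 Labels refer to human fibroblasts, largely primary: uterine (C12385, HUF), lung (H6013), bone (Hs27A), adrenal (HADF), skin (WS1), plus mammary HMF and breast cancer-associated Hs343T. Cancer lines are basal-like or mesenchymal-like triple-negative breast cancer. The paper counts as hits responses shifting over 3x the replicate standard deviation. The tissue of the other fibroblasts is not given here.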

System: MDAMB436
Assay: relative JC-1 red fluorescence (viability) vs pre-drug, coculture with fibroblast (fraction); higher = more viable cancer cells
Description: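 JC-1 labelled TNBC cells cocultured 1:1 (1,500 cells each) with CellTrace Violet stained primary or stromal fibroblasts in 384-well plates in FluoroBrite medium, treated with one of 42 anticancer drugs at 0.1, 1, 10 or 100 uM. JC-1 red fluorescence (mitochondrial integrity in cancer cells only) was read by plate reader every 8 h for 72 h. Values are normalised to each well's pre-drug value. The stock of one drug was tenfold lower, so its dose labels may be too high.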

CO[C@H]1C[C@@H]2CC[C@@H](C)[C@@](O)(O2)C(=O)C(=O)N2CCCC[C@H]2C(=O)O[C@H]([C@H](C)C[C@@H]2CC[C@@H](O)[C@H](OC)C2)CC(=O)[C@H](C)/C=C(\C)[C@@H](O)[C@@H](OC)C(=O)[C@H](C)C[C@H](C)/C=C/C=C/C=C/1C [Rapamycin]
relative JC-1 red fluorescence
Settings | 8 h | 16 h | 24 h | 32 h | 40 h | 48 h | 56 h | 64 h | 72 h
0.1 µM, coculture fibroblast: C12385 | 0.77382 | 0.706 | 0.657 | 0.572 | 0.521 | 0.487 | 0.462 | 0.443 | 0.436
0.1 µM, coculture fibroblast: H6013 | 0.784 | 0.738 | 0.724 | 0.716 | 0.704 | 0.736 | 0.705 | 0.696 | 0.668
0.1 µM, coculture fibroblast: H6019 | 0.715 | 0.65 | 0.626 | 0.548 | 0.512 | 0.494 | 0.475 | 0.46 | 0.445
0.1 µM, coculture fibroblast: H6076 | 0.727 | 0.672 | 0.657 | 0.62 | 0.616 | 0.592 | 0.616 | 0.612 | 0.609
0.1 µM, coculture fibroblast: H6231 | 0.7772 | 0.686 | 0.697 | 0.613 | 0.604 | 0.573 | 0.561 | 0.543 | 0.527
0.1 µM, coculture fibroblast: HADF | 0.831 | 0.78 | 0.791 | 0.776 | 0.771 | 0.805 | 0.749 | 0.749 | 0.72
0.1 µM, coculture fibroblast: HCFa | 0.754 | 0.707 | 0.672 | 0.64 | 0.62 | 0.6378 | 0.5681 | 0.559 | 0.505
0.1 µM, coculture fibroblast: HCPF | 0.788 | 0.723 | 0.694 | 0.632 | 0.606 | 0.57 | 0.553 | 0.534 | 0.513
0.1 µM, coculture fibroblast: HHSteC | 0.813 | 0.779 | 0.748 | 0.715 | 0.706 | 0.723 | 0.664 | 0.652 | 0.604
0.1 µM, coculture fibroblast: HMF | 0.726 | 0.672 | 0.656 | 0.614 | 0.597 | 0.561 | 0.566 | 0.551 | 0.544
0.1 µM, coculture fibroblast: HPFa | 0.901 | 0.807 | 0.782 | 0.743 | 0.736 | 0.753 | 0.691 | 0.676 | 0.624
0.1 µM, coculture fibroblast: HUF | 0.839 | 0.731 | 0.701 | 0.627 | 0.566 | 0.537 | 0.517 | 0.504 | 0.5
0.1 µM, coculture fibroblast: Hs5 | 0.7573 | 0.696 | 0.678 | 0.617 | 0.605 | 0.563 | 0.578 | 0.544 | 0.532
0.1 µM, coculture fibroblast: Hs27A | 0.796 | 0.724 | 0.708 | 0.69 | 0.665 | 0.725 | 0.645 | 0.63 | 0.574
0.1 µM, coculture fibroblast: Hs343T | 0.737 | 0.665 | 0.6318 | 0.5885 | 0.573 | 0.5358 | 0.539 | 0.528 | 0.5197
0.1 µM, coculture fibroblast: WS1 | 0.752 | 0.693 | 0.656 | 0.56 | 0.523 | 0.49 | 0.469 | 0.446 | 0.436
1 µM, coculture fibroblast: C12385 | 0.827 | 0.816 | 0.814 | 0.749 | 0.706 | 0.693 | 0.681 | 0.668 | 0.672
1 µM, coculture fibroblast: H6013 | 0.846 | 0.819 | 0.816 | 0.806 | 0.801 | 0.8188 | 0.783 | 0.7721 | 0.7359
1 µM, coculture fibroblast: H6019 | 0.787 | 0.7807 | 0.787 | 0.732 | 0.711 | 0.704 | 0.667 | 0.646 | 0.618
1 µM, coculture fibroblast: H6076 | 0.828 | 0.791 | 0.805 | 0.77 | 0.757 | 0.745 | 0.747 | 0.74 | 0.734
1 µM, coculture fibroblast: H6231 | 0.764 | 0.7339 | 0.7811 | 0.7066 | 0.691 | 0.664 | 0.664 | 0.636 | 0.626
1 µM, coculture fibroblast: HADF | 0.849 | 0.843 | 0.842 | 0.828 | 0.811 | 0.835 | 0.766 | 0.761 | 0.719
1 µM, coculture fibroblast: HCFa | 0.8177 | 0.8005 | 0.785 | 0.766 | 0.747 | 0.758 | 0.692 | 0.685 | 0.628
1 µM, coculture fibroblast: HCPF | 0.856 | 0.848 | 0.856 | 0.7933 | 0.762 | 0.715 | 0.69 | 0.665 | 0.644
1 µM, coculture fibroblast: HHSteC | 0.82188 | 0.8457 | 0.845 | 0.825 | 0.818 | 0.85 | 0.782 | 0.772 | 0.72
1 µM, coculture fibroblast: HMF | 0.7859 | 0.752 | 0.758 | 0.717 | 0.706 | 0.675 | 0.677 | 0.657 | 0.647
1 µM, coculture fibroblast: HPFa | 0.898 | 0.908 | 0.9 | 0.863 | 0.859 | 0.883 | 0.81 | 0.787 | 0.741
1 µM, coculture fibroblast: HUF | 0.846 | 0.79 | 0.778 | 0.703 | 0.64 | 0.613 | 0.591 | 0.5772 | 0.5706
1 µM, coculture fibroblast: Hs5 | 0.814 | 0.798 | 0.7951 | 0.735 | 0.7228 | 0.675 | 0.679 | 0.653 | 0.644
1 µM, coculture fibroblast: Hs27A | 0.81 | 0.812 | 0.822 | 0.824 | 0.816 | 0.897 | 0.813 | 0.811 | 0.737
1 µM, coculture fibroblast: Hs343T | 0.812 | 0.773 | 0.741 | 0.7 | 0.681 | 0.651 | 0.637 | 0.622 | 0.618
1 µM, coculture fibroblast: WS1 | 0.798 | 0.765 | 0.751 | 0.678 | 0.636 | 0.624 | 0.599 | 0.583 | 0.573
